Laboratory results published in publication PMC10746232.
No constants are given. Whether binding was seen depends on the method and setting. In cells and extracts the contact can be indirect. A result given as binding can be weak or reduced; the word gives no strength. Tags and fused reporters may be left off the sequences shown.

Assays:
[1] = molecular target: TgSec31^myc (Toxoplasma gondii (endogenous in RH tachyzoites)); test: co-IP; myc-tagged bait (TgCOPI-δ^myc, TgSec31^myc or Tg289120^myc) isolated on α-Myc magnetic beads from parasites co-expressing endogenous TgCog3^AID-HA or TgCog7^AID-HA; western blot with α-HA and α-myc; extraction in PBS with 263 mM NaCl, 1% Triton X-100
[2] = molecular target: TgCOPI-δ^myc (Toxoplasma gondii (endogenous in RH tachyzoites)); test: as above

B1: TgCog7^AID-HA (protein, UniProt S8FAE0 1-1223)
chain: MASPVPKPPEGALPGSPLPSSNSSSSASLQSSAVSAAFNALSAPTFSAGAWLDACIERSLEQQAFEAPPVASSSLASSPETETARLADRLESTLESVLAEVQRRIATTFEALDTKSQDLSSAAPTYVKQVEELSGKLVDARRTVDDALKALSCVDFEHQESLRRLAALDALRRHFHRCRRVLLVLHQWDFRVGEIELLLHSFQHQETPLIANPASSVDGTPFHPHQPSQGQGLSDDADASTFSSSSFSSSASSASSASSASSSSSSSAFEHAASTARLRSLAQAAMHAAALKNAVQELKAFGEFSARVRAAELLEKRVVVVTRSLMRSAFLSGDAESLRVAMNISVTLNHSAQLQQELSKCFGDQLRQAWLATWARTPAGRRRREAEVAAGACWALAPNERLHGERELYAEEQGDGFPREEADACGDDASVEKEQRTIGEPEALLLYFEEFTRLLEERSSLLRLFADELSQAEIRALRASSDDASSTSSCSSAAHSASSSSRSADPQGPFGCGRRGEEETSGVAGAASQAPHRPLRLHRTASRLHTRVWEETLLLCLKVGGEAPNAEVEAFLAAGGADLEEDDEERMARIEKLLQTYDMGFTLLSATPVVAESEPHIPQLWRKISSTCLFFPALLLRQFNAALWKSSRRFFLQDAPSVRPFDKRQAPSQVVMELEGRLDRTLQRLSSPALAALSPGAFHLCLAPCLLSAVDDAVAEFLSSLSPVLQTFAHTIQYKTQSIQDTQNRERERDLPARGNAGDFLPLDVLPTSLPFDLSLLNACMQQYLLFASAQQKLAQGAAVVFDEALTGHRRHSRFNVYLRELTNLHPDLLVYPSPSAVAHSASLLPSSCSSSFSAPPLPSVLPASFAAYTKLRHASRALVLLACSAPCSLFLHRFYPLCWGAISVSSSAQRAESLLREQRESINGQESKAILPSSVSTAAGEFFLQLLPHLEVAAAGAKGSEKRETEVESSDESLIAGLLSVVFTSFCRALLVADLPTRLTKEEPVQRGELRENMLLQLQADARYLASLSRSLGYDPEEESSFLFFETESGEGSEKARDAQADKQDQQTKDEERESSDLGETKKEEKDEAVRQERKRGPTWMIGLLLRGLDALLGTAEGETSAEPSAAKREEIKNNADENSSSLGCLGAFEAHLRRKFAREKNETKGESPSDSERVRAARAVAAAALESPSSDLCKSEKEKEDEEVTLVWAVLCQLGVFPSPL
**Q.** How did the binding [1] turn out when B1 was run?
**A.** Its binding is “binds”.

**Q.** And the binding [2]?
**A.** The binding was “binds”.
